Reference: US20200231694A1, “PHARMACEUTICAL COMBINATIONS COMPRISING AN ANTI-BST-1 ANTIBODY AND A CYTIDINE ANALOGUE” (BERLIN-CHEMIE AG, priority 2017, published 2020)
These are yes or no findings as the source states them, for the method shown. Some results given as binding are weak or reduced against the parent protein; the word gives no strength.

Biological target: T1, ADP-ribosyl cyclase 2 (CD157; BST1) (human, UniProt Q10588 33-293)
T1 construct: Endogenous lipid-anchored BST1 on human cell lines (A549, H226, U937) and on AML patient blasts; also called Bone marrow stromal antigen 1; cell-surface human BST1
T1 sequence: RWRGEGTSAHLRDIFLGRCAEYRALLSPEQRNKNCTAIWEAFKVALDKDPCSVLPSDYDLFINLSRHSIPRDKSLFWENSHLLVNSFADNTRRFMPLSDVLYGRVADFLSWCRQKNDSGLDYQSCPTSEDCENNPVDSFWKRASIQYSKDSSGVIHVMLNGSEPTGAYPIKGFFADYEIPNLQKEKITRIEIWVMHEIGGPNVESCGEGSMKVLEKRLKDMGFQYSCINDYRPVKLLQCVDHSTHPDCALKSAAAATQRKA
Assay: flow cytometry on lymphoblasts from the blood of 20 AML patients

binding: binds
B1: BST1_A2 (full heavy and light chains, SEQ ID NOs 74 and 76) (antibody, V domains shown)
VH: QVQLVQSGAEVKKPGASVKVSCKASGYSFIEYTINWVRQAPGQGLEWIGNIDPYYGTTYYNQMFTGRATLTVDTSISTAYMELSRLRSDDTAVYYCARGSAWFPYWGQGTLVTVSS
VL: DIQMTQSPSSLSASVGDRVTITCSASSSVTYMYWYQQKPGKAPKLLIYDTSNLASGVPSRFSGSGSGTDYTLTISSLQPEDFATYYCQQWSNYPLTFGQGTKVEIKR
